No constants are given. Whether binding was seen depends on the method and setting. Sequences can lack the tags named with a protein.

The target in this experiment is His6-PilM (soluble PilM from cells expressing His6-pilMN-Strep) (Thermus thermophilus HB27) (UniProt Q8VRL8). Put plainly: native gel or EMSA; 5-20% clear-native PAGE of purified His6-PilMN-Strep, His6-PilMNO-Strep and His6-PilM; bands of PilMN cut out and run on 14% SDS/PAGE; both purified. In general terms: A gel shift assay detects complexes by their altered migration in electrophoresis.

B1: His6-PilM (soluble PilM from cells expressing His6-pilMN-Strep) (protein, UniProt Q8VRL8 1-377)
chain: MFKSLSQLFRPRVEALGLEIGASALKLVEVSGNPPALKALASRPTPPGLLMEGMVAEPAALAQEIKELLLEARTRKRYVVTALSNLAVILRPIQVPKMPLKEMEEAVRWEAERYIPFPIDEVVLDFAPLTPLSEVQEGEQVQVMVAAARQEAVAGVLEALRGAGLVPVVLDVKPFAGLYPLEARLAEEPDRVFLVLDIGAESTSLVLLRGDKPLAVRVLTLSGKDFTEAIARSFNLDLLAAEEVKRTYGMATLPTEDEELLLDFDAERERYSPGRIYDAIRPVLVELTQELRRSLEFFRIQLEEASPEMGYLLGGGSKLRGLASLLTDTLGVNFEPVNPWEAVAVDPKRFESEQLQEIGPEFAVALGLALRGVEPLD
On to B1, for which the binding entry is “no binding”.
